## Assay results

From PubChem BioAssay record AID912 (NCATS, 2007).

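Uptake of anthrax lethal toxin into cultured cells, read by FRET (460/530 nm ratio) and reported from the 460 nm channel; the cell line is not named here. Each compound was tested as a concentration series from about 0.0005 to 40 µM. The number is the fitted AC50 of the 460 nm signal alone; lower values mean a more potent effect. A falling signal goes with compounds filed as inhibitors or cytotoxic, a rising one with activators or fluorescent compounds (inferred from the filed classes).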

Values are in µM. Common to all entries: measured here: 460 nm channel. Part of the compounds only, not a random draw; the main read-out is not listed here. Potencies fitted to partial, single-point or poorly fitting curves are rough. The first word of each remark tells which way the curve ran; it can be opposite to the aim of the assay.

structure: CC1=C(C(=O)N(C)C)C(c2ccc(Cl)c(Cl)c2)NC(=O)N1 (stereo not drawn)
AC50 (µM): 0.3162
remark: falling, full curve

structure: COc1ccc(CCNC(=O)c2cc3sc(Cl)cc3n2C)cc1OC
AC50 (µM): 12.59
remark: falling, single point

structure: CN1CCN(c2nc(NCCOC34CC5CC(CC(C5)C3)C4)nc(OCC(F)(F)F)n2)CC1
AC50 (µM): 5.012
remark: rising, single point

structure: NC(=O)C1CCN(C(=O)C2CCN(S(=O)(=O)c3ccccc3)CC2)CC1
AC50 (µM): 15.85
remark: rising, single point

structure: CC(C)CN1CCc2nc(-c3ccccc3)c3c(c2CC1)COC(C)C3 (stereo not drawn)
AC50 (µM): 1
remark: rising, single point

structure: Cc1cccc(N2CCN(C(=O)C3CCN(c4nnc(-n5cccc5)s4)CC3)CC2C)c1 (stereo not drawn)
AC50 (µM): 15.85
remark: falling, partial curve

structure: Cc1[nH]c(=O)c(C#N)c(C)c1Br
AC50 (µM): 0.003981
remark: falling, full curve, poor fit

structure: O=C(Nc1ccc2c(c1)OCO2)C1(S(=O)(=O)c2ccc(Cl)cc2)CC1
AC50 (µM): 5.012
remark: rising, single point

structure: O=C(CSc1nnc2ccccn12)NC(=O)NC1CCCC1
AC50 (µM): 2.512
remark: rising, partial curve, poor fit

structure: Cc1nc(NS(=O)(=O)c2cccs2)c2c3c(sc2n1)CCC3
AC50 (µM): 5.012
remark: rising, partial curve

structure: CCOC(=O)N1CCC(NC(=O)c2cc3c(=O)n(C)c4ccccc4c3n2C)CC1
AC50 (µM): 19.95
remark: falling, partial curve

structure: O=S(=O)(NCCSc1nc2ccccc2o1)c1ccccc1
AC50 (µM): 31.62
remark: falling, partial curve, poor fit

structure: CCOC(=O)N1CCN(c2c(NCc3ccccc3OC)c(=O)c2=O)CC1
AC50 (µM): 12.59
remark: rising, partial curve

structure: CC(C)(C)OC(=O)N[C@@H](Cc1ccccc1)c1nnc(S(=O)(=O)Cc2cccc(F)c2)o1
AC50 (µM): 15.85
remark: falling, partial curve

structure: COc1ccc(NC(=O)C2C(=O)NC3(C)CC2c2ccccc2O3)cc1 (stereo not drawn)
AC50 (µM): 5.012
remark: rising, single point

structure: COc1ccc(Nc2nc(C(=O)NCCCN3CCOCC3)cs2)cc1
AC50 (µM): 5.012
remark: rising, single point

structure: COc1ccc(OC)c(NC(=O)CN(c2ccc(C(C)C)cc2)S(=O)(=O)c2c(C)noc2C)c1
AC50 (µM): 6.31
remark: falling, partial curve

structure: CS(=O)(=O)Nc1ccccc1C(=O)Nc1cccc(Cl)c1
AC50 (µM): 31.62
remark: rising, single point

structure: CCOC(=O)CSC1=C(C#N)C(c2ccc(C)s2)CC(=O)N1 (stereo not drawn)
AC50 (µM): 15.85
remark: falling, partial curve

structure: O=C(Nc1nc2c(s1)CCCC2)Oc1ccccc1
AC50 (µM): 0.1259
remark: falling, full curve, poor fit

structure: COc1ccc(NC(=O)c2cc(-c3cc(C)ccc3O)n[nH]2)cc1Cl
AC50 (µM): 5.012
remark: falling, partial curve, poor fit

structure: Cc1cccc(OCC(=O)Nc2ccc(S(=O)(=O)N3CCCC3)cc2)c1
AC50 (µM): 10
remark: falling, partial curve

structure: c1coc(CNc2c3c(nc4ccccc24)CCC3)c1
AC50 (µM): 10
remark: falling, partial curve

structure: CC1CCN(S(=O)(=O)c2ccc(Cl)cc2Br)CC1
AC50 (µM): 12.59
remark: falling, single point

structure: Cc1ccccc1Cn1ccc(NC(=O)CCSc2nc(-c3ccco3)cc(C(F)(F)F)n2)n1
AC50 (µM): 5.012
remark: rising, single point

structure: CCc1cc2c(C)cc(=O)oc2cc1OC(=O)C1CCCN1C(=O)OC(C)(C)C (stereo not drawn)
AC50 (µM): 12.59
remark: rising, partial curve

The first 3 entries again:

structure,AC50 (µM),remark
CC1=C(C(=O)N(C)C)C(c2ccc(Cl)c(Cl)c2)NC(=O)N1 (stereo not drawn),0.3162,"falling, full curve"
COc1ccc(CCNC(=O)c2cc3sc(Cl)cc3n2C)cc1OC,12.59,"falling, single point"
CN1CCN(c2nc(NCCOC34CC5CC(CC(C5)C3)C4)nc(OCC(F)(F)F)n2)CC1,5.012,"rising, single point"